The source of these data is the supplement of paper PMC10338343.

± gives the standard deviation. This is a selection; strong and weak results do not stand in their true shares. The uncertainty is large for many entries.

In this experiment the test system is MILI (PIWIL2) piRISC loaded with piRNA #2 (26 nt). As to the kind of experiment: pre-steady-state target cleavage rate (min^-1); MIWI and MILI are mouse PIWI proteins and EfPiwi is from a freshwater sponge; tags in brackets are library labels; higher = faster piRNA-guided slicing of the target. Conditions: guide: piRNA #2 5'p-UUAGGUAACCCAGUAGAUCCAGAGGA; auxiliary factor: 500 nM mouse GTSF1. The essentials: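 Cleave-'n-Seq: 1 nM active affinity-purified piRISC with one synthetic guide and 0.1 nM transcribed, DNA-blocked target RNA library were mixed, with or without 500 nM GTSF1 partner protein, in HEPES–potassium acetate buffer at 33 °C for 0–8 or 0–960 min. Uncleaved targets were sequenced and normalised to depth and to weakly complementary targets, three trials were pooled, and k3 was capped at 0.0001 min^-1. The pre-steady-state cleavage rate was fitted […].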
For CUUAAGCUCUGGAUCAUACUGGGUUACCUAA, the “pre-steady-state target cleavage rate” value worked out at 0.000822 ± 0.011. In the case of CUUAAGGAGACCAACUACUGGGUUACGUAA, the “pre-steady-state target cleavage rate” value stood at 0.00048 ± 0.018.

With CUUAUCCUCUGGAUCUACUCCGUUACCUAA, the “pre-steady-state target cleavage rate” value was determined as 0.000269 ± 0.027. Consider CUUAAGGAGUGGAUCUACAUGGGUUACCUAA, for which the “pre-steady-state target cleavage rate” value worked out at 0.000336 ± 0.021. CUUAAGGACUGGAUCUACUGGGUUUGCUAA: the “pre-steady-state target cleavage rate” value is 0.000457 ± 0.04. For the sequence CUUAAGGAGACCUAGAUGAGGGUUAACCUAA, the “pre-steady-state target cleavage rate” value was 0.00056 ± 0.012.

With CUUAAGGAGUGGAUCAUCUGGGUUACCUAA, the “pre-steady-state target cleavage rate” value is 0.00162 ± 0.007.

Take CUUAAGGAGAGGAUCUACUGGGUUAGCUAA: the “pre-steady-state target cleavage rate” value came to 0.000303 ± 0.045. To CUUAAGCUCUGGAUCUACAGGCUUACCUAA belongs 0.00236 ± 0.0058. To CUUAACCUCUGGAUCUACUGCGUUUCCUAA belongs 0.00295 ± 0.0053; to CUUAUCCUCUGGAUCUUCUCGGUUACCUAA, 0.00253 ± 0.0045; to CUUAAGGAGACGAUCUACUGGAGUUACCUAA, 0.00178 ± 0.0056. To CUUAAGGAGACCUUCUACUGGGUUACCUCAA belongs 0.0009 ± 0.011; to CUUAAGGAGACGAUCUAACUGGGUUACCUAA, 0.000451 ± 0.0075; to CUUAAGGAGACCUUCUACUGGGUUACGCUAA, 0.000395 ± 0.023. Regarding CUUAAGGAGACCAUCUACUGGGUUAACCUAA, the “pre-steady-state target cleavage rate” value stood at 0.000772 ± 0.01. CUUAUCCUCUGGAUCUACUGGGUUUCCAAA: the “pre-steady-state target cleavage rate” value worked out at 0.134 ± 0.047. In the case of CUUAAGGAGACCUAGAUGUGGGUUACCAAA, the “pre-steady-state target cleavage rate” value was determined as 0.000308 ± 0.021. CUUAAGGAGACCAUCUACUGGGAAACCUAA: the “pre-steady-state target cleavage rate” value worked out at 0.000528 ± 0.015. Under CUUAAGGACUGGAUCUACUGGGUAUGCUAA stands 0.000244 ± 0.038; under CUUAAGGUGUGGAUCUACUCGGUUACCUAA, 0.000532 ± 0.027; under CUUAAGCUCUGGAUCUACGUGGGUUACCUAA, 0.000368 ± 0.015. Under CUUAAGGAGACCAUCUACUGGGUUACCUCAA stands 0.00082 ± 0.011; under CUUAAGGACUGGAUCUUGUGGGUUACCUAA, 0.00558 ± 0.0059; under CUUAAGGAGAGGAUCUACUGGGUUCCUAA, 0.000286 ± 0.015. In the case of CUUAAGCUCUGGAUCAACUGGGUUACCUUA, the “pre-steady-state target cleavage rate” value came out at 0.0336 ± 0.011. CUUAUCGUCUGGAUCUACUCGGUUACCUAA: the “pre-steady-state target cleavage rate” value came out at 0.00107 ± 0.011. For CUUAAGCUCUGGAUCUACUGGUGUUACCUAA, the “pre-steady-state target cleavage rate” value worked out at 0.00019 ± 0.031.

For the sequence CUUAAGGAGACCUAGAACUGGGUUACCUAAA, the “pre-steady-state target cleavage rate” value stood at 0.000112 ± 0.058.

For the sequence CUUAAGGUCUGGAUCUACAUGGGUUACCUAA, the “pre-steady-state target cleavage rate” value was 0.000967 ± 0.0068. For CUUAAGGAGACGAUCUUCUGGGUUACCUUA, the “pre-steady-state target cleavage rate” value worked out at 0.00171 ± 0.0064. Turning to CUUAUCCUCUGGUUCUUCUGGGUUACCUAA, the “pre-steady-state target cleavage rate” value came to 0.338 ± 0.088.

On to CUUAUCCUCUGGAUCUACUGGGUUACCUUA, for which the “pre-steady-state target cleavage rate” value stood at 0.13 ± 0.026. Under CUUAACCUCUGGAUCUACUGCGGUUACCUAA stands 0.00113 ± 0.0083. As for CUUAAGGACUGCAUCUACUCGGUUACCUAA, the “pre-steady-state target cleavage rate” value worked out at 0.00137 ± 0.013. To CUUAUCCUCUGGAACUACUGGGUUUCCUAA belongs 1.1 ± 0.56. Under CUUAAGGAGAGGAUCUACAGGGUUACCUUA stands 0.0102 ± 0.0051; under CUUAUCCUCUGCAUCUACUGGGUUUCCUAA, 0.165 ± 0.071. As for CUUAAGGAGUCCUUCUACUGGGUUACCUAA, the “pre-steady-state target cleavage rate” value stood at 0.00105 ± 0.0064.

For the sequence CUUAAGGAGACCUUCUACUGGGUAAGCUAA, the “pre-steady-state target cleavage rate” value stood at 0.00059 ± 0.016. Take CUUAAGGAGACGAUGUACUGGGUUACCUAA: the “pre-steady-state target cleavage rate” value came to 0.00152 ± 0.0041.

Consider CUUAAGCUCUGGAUCAACUCGGUUACCUAA, for which the “pre-steady-state target cleavage rate” value came out at 0.000699 ± 0.014. On to CUUAAGGAGAGGAUCUACUGGCGUUACCUAA, for which the “pre-steady-state target cleavage rate” value came to 0.000306 ± 0.02.

Take CUUAAGGAGAGGAUCUACAGGGUUUCCUAA: the “pre-steady-state target cleavage rate” value is 0.00294 ± 0.0038. CUUAAGGAGACCAUGUACUGGGUUACCAAA: the “pre-steady-state target cleavage rate” value is 0.000276 ± 0.025. For CUUAAGGACUGCAUCAACUGGGUUACCUAA, the “pre-steady-state target cleavage rate” value came to 0.00274 ± 0.012.

Turning to CUUAAGGAGACCAUCAACAGGGUUACCUAA, the “pre-steady-state target cleavage rate” value came to 0.00058 ± 0.014. As to CUUAAGGUCUGGAUCUACUGGUGUUACCUAA, the “pre-steady-state target cleavage rate” value is 0.000246 ± 0.017. Regarding CUUAAGGAGACGUUCUACUGGGAUACCUAA, the “pre-steady-state target cleavage rate” value was 0.000105 ± 0.045.

Regarding CUUAAGGAGUGGAUCUACUGGGUUACUCUAA, the “pre-steady-state target cleavage rate” value was determined as 0.0036 ± 0.0042. In the case of CUUAAGGAGUGGAUCUAGUGCGUUACCUAA, the “pre-steady-state target cleavage rate” value was 0.00114 ± 0.0087. To CUUAAGGAGUGGAUCUAGUGGGAUACCUAA belongs 0.000914 ± 0.013. CUUAAGGAGACCUAGAUGACGGUUAACCUAA: the “pre-steady-state target cleavage rate” value was 0.000127 ± 0.043. Consider CUUAAGCUGUGGAUCUACUGGGUUACCAAA, for which the “pre-steady-state target cleavage rate” value is 0.00345 ± 0.0054.

For CUUAAGGAGAGGAUCUUGAGGGUUACCUAA, the “pre-steady-state target cleavage rate” value came out at 0.000121 ± 0.04. With CUUAACCUCUGGAUCUACUGGGUUUACCUAA, the “pre-steady-state target cleavage rate” value came out at 0.0817 ± 0.019. To CUUAAGCUCUGGAUCUUCUCGGUUACCUAA belongs 0.00105 ± 0.0073; to CUUAAGGAGACCUACUACUGGGUUAUCUAA, 0.000538 ± 0.013. For CUUAAGGAGACCUAGUACGUGGGUUACCUAA, the “pre-steady-state target cleavage rate” value turned out to be 0.000264 ± 0.043. To CUUAACCUCUGGAUCUACUGGGUUAGGAAA belongs 0.00266 ± 0.005; to CUUAAGGACUGGAUCUUCUGGGAUACCUAA, 0.00398 ± 0.009.

CUUAAGGAGACCUAGAUGUGGGUUACACUAA: the “pre-steady-state target cleavage rate” value stood at 0.000265 ± 0.027. On to CUUAACCUCUGGAUCUUCUGGGUUACCUAA, for which the “pre-steady-state target cleavage rate” value came to 0.0795 ± 0.017. For the sequence CUUAAGGAGACGAUCUACUGGGCUACCUAA, the “pre-steady-state target cleavage rate” value was determined as 0.000478 ± 0.014. To CUUAAGGAGACCAUUACUGGGUUACCUAA belongs 0.000922 ± 0.0094; to CUUAAGGAGAGGAUCUACUGGGUUACCCAA, 0.00218 ± 0.0056.

Regarding CUUAAGGAGUAGGAUCUACUGGGUUACCUAA, the “pre-steady-state target cleavage rate” value was determined as 0.00494 ± 0.0041.

As to CUUAAGCUCUGGAUCUUCUGGGUUUCCUAA, the “pre-steady-state target cleavage rate” value was found to be 0.0561 ± 0.017. Regarding CUUAUCCUCUGGUUGUACUGGGUUACCUAA, the “pre-steady-state target cleavage rate” value was 0.151 ± 0.031. Under CUUAAGGACUGGAUCUACUGGGUUACGAAA stands 0.00358 ± 0.0093; under CUUAAGGAGACCUACAACUGGGUUAGCUAA, 0.000142 ± 0.065; under CUUAAGGAGACCUAGUUCAGGGUUACCUAA, 0.00031 ± 0.019. Under CUUAAGGAGACGUUCUACUGCGUUACCUAA stands 0.00069 ± 0.0086; under CUUAAGGAGACCUAGAUGACCGUUACCAAA, 0.000494 ± 0.014; under CUUAAGGAGACCUUGUAGUGGGUUACCUAA, 0.000252 ± 0.025. For CUUAAGGAGACCUUCUGACUGGGUUACCUAA, the “pre-steady-state target cleavage rate” value was 0.000175 ± 0.03. Under CUUAAGGUGUGGAUCUACUGGGUUAGCUAA stands 0.00124 ± 0.0083; under CUUAAGGACUGGAUCUUCUGGGUUACGUAA, 0.00361 ± 0.01; under CUUAAGGAGACGAUCUACCGGGUUACCUAA, 0.0014 ± 0.007. To CUUAAGGAGUGGAUCUUCUGGGAUACCUAA belongs 0.00198 ± 0.0074; to CUUAAGGAGACCUAGUACUGGGAUACCUAA, 0.000231 ± 0.024. To CUUAUCCUCUGGUCUACUGGGUUACCUAA belongs 0.983 ± 0.34; to CUUAAGGAGACCAUCCACUGGGUUACCUAA, 0.0018 ± 0.006; to CUUAAGGAGUGGAUCUACUAGGGUUACCUAA, 0.00079 ± 0.0081. Consider CUUAAGGAGACCAUCUACUGGGGUUACCUAA, for which the “pre-steady-state target cleavage rate” value turned out to be 0.00112 ± 0.0075. To CUUAAGGAGACGAUCUACAGGGAUACCUAA belongs 0.00223 ± 0.0053. For the sequence CUUAUGCUCUGGAUCUACUCGGUUACCUAA, the “pre-steady-state target cleavage rate” value stood at 0.00216 ± 0.0039. Under CUUAAGGAGACCUUCUACUAGGUUACCUAA stands 0.000727 ± 0.011. To CUUAAGGAGUGGAUCUACUCGGUUACCUAA belongs 0.000639 ± 0.024; to CUUAAGGAGACCAUCUAUUGGGUUACCUAA, 0.00124 ± 0.0086; to CUUAAGGAGACCUACUACUGGGUUAACUAA, 0.00035 ± 0.021.

For the sequence CUUAAGGAGACCUACUACUGGGAUUACCUAA, the “pre-steady-state target cleavage rate” value worked out at 0.00119 ± 0.0088.
